# The other results are listed elsewhere or left out. These are further read-outs of the screen, such as a control signal, another cell line or another target. No call is given for them. Compounds called inactive in the main read-out are mostly missing here. The note in brackets gives the kind of curve behind each potency; many fits are weak.
# Test: qHTS Assay for Identifying the Cell-Membrane Permeable IMPase Inhibitors
# Settings: CHO-M1 cells, IP1 accumulation, HTRF TR-FRET ratio; measured here: donor channel 620 nm AC50
row,Structure (SMILES),AC50
1,COc1ccc(NC(=O)c2c(Cl)n(C)c3ccccc23)cc1,"3.16 µM [falling, partial curve]"
2,O=C(NCCc1ccccc1)C1CC(c2ccccc2O)=NO1 (configuration not stated),"0.01 µM [falling, full curve, poor fit]"
3,COc1ccc(C(=O)NC(=S)N(Cc2ccccc2)Cc2ccccc2)cc1,"1.58 µM [rising, partial curve, poor fit]"
4,CS(=O)(=O)N(Cc1ccc(C(=O)Nc2ccccc2Sc2ccccc2)cc1)c1ccccc1,"3.98 µM [rising, full curve, poor fit]"
5,COc1ccc2c(c1OC)C(=O)N(c1ccc(C)c(C)c1)C2=O,"20 µM [falling, single point]"
6,O=C(Nc1ccc(NC(=O)c2cccs2)cc1)c1cccc(Br)c1,"35.5 µM [rising, single point]"
7,Cn1c(COc2ccc3ccccc3c2)nnc1SCC(=O)OC1CCCCC1,"11.2 µM [falling, single point]"
8,Cc1cc(=O)[nH]c(SCC(=O)c2ccc(C)c(C)c2)n1,"3.16 µM [falling, full curve]"
9,CC(C)c1ccc2c(c1)C1(NN=C(c3ccccc3)S1)C(=O)N2 (configuration not stated),"1 µM [falling, full curve]"
10,COc1cc(-c2ccc(N=Nc3ccc4c(S(=O)(=O)O)cc(S(=O)(=O)O)c(N)c4c3O)c(OC)c2)ccc1N=Nc1ccc2c(S(=O)(=O)O)cc(S(=O)(=O)O)c(N)c2c1O,"15.8 µM [falling, partial curve]"
11,COC(=O)c1cc(Br)c(=O)n(-c2nccs2)c1,"10 µM [rising, partial curve]"
12,CCCOc1ccc(C2c3c(oc4cc(C)c(C)cc4c3=O)C(=O)N2CCCN(C)C)cc1 (configuration not stated),"35.5 µM [rising, single point]"
13,Cc1cccc(OCC(=O)Nc2ccc(-c3nc4cc(C)ccc4o3)c(O)c2)c1,"3.16 µM [rising, partial curve]"
14,CCc1ccc(CNc2ccc3c(c2)ncn3C)cc1,"5.01 µM [falling, single point]"
15,CCC(C)(C)NC(=O)c1ccc(S(=O)(=O)N(C)c2ccccc2OC)cc1,"0.126 µM [falling, full curve]"
16,COc1cc2ccccc2cc1C(=O)Nc1cc(-c2nc3ccccc3o2)ccc1C,"22.4 µM [falling, single point]"
17,Clc1cccc(CNc2nnnn2-c2ccccc2)c1,"6.31 µM [rising, full curve, poor fit]"
18,Cc1cc2cc3c(cc2nc1SCC(=O)Nc1ccccc1)CCC3,"31.6 µM [rising, single point]"
19,O=C(Cn1c2ccccc2c(=O)c2ccccc21)N/N=C/c1cc([N+](=O)[O-])ccc1N1CCCCCC1,"0.316 µM [rising, single point]"
20,CCN=c1scc(C)n1/N=C/c1ccc(O)c(O)c1O,"20 µM [falling, single point]"
21,COc1ccc(-n2c(=O)[nH]cc(C(=O)N3CCc4ccccc43)c2=O)cc1,"3.16 µM [falling, single point]"

row,Structure (SMILES),AC50
1,Cc1cc(SCCC(=O)O)nc2c(C)cccc12,"12.6 µM [rising, partial curve]"
2,CC(C)(C)c1ccc(OCc2nc3ccccc3n2CCOc2ccccc2)cc1,"1.12 µM [falling, full curve, poor fit]"
3,CCc1ccc2oc(=O)cc(CN3CCN(c4ccc(F)cc4)CC3)c2c1,"0.02 µM [falling, full curve]"
4,CS(=O)(=O)N1CCN(C(=O)c2cc3ccccc3oc2=O)CC1,"35.5 µM [falling, single point]"
5,CC1(C)CC(=O)C(N=Nc2ccc3ncsc3c2)=C(O)C1,"20 µM [rising, single point]"
6,O=c1c2cc(-c3ccccc3)sc2ncn1-n1cccc1,"6.31 µM [falling, single point]"
7,O=C(Nc1ccc(Cl)cc1)NC1CCCc2ccccc21 (configuration not stated),"0.631 µM [falling, full curve, poor fit]"
8,CC(=O)N(c1ccccc1)c1nc(C)cc(C)c1C#N,"0.794 µM [rising, full curve, poor fit]"
9,Cc1ccc(CSc2ncnc3c2cnn3-c2ccc(C)cc2)cc1,"3.16 µM [rising, partial curve, poor fit]"
10,COc1ccc(N2CCN(C(=O)CCN3C(=O)c4ccccc4S3(=O)=O)CC2)cc1,"0.158 µM [falling, full curve, poor fit]"
11,CCOC(=O)c1ccc(NC(=O)CSc2nc3cc4ccccc4cc3[nH]2)cc1,"5.62 µM [rising, single point]"
12,Cn1c(CNC(=O)Nc2cccc(Cl)c2)nnc1SCc1ccccc1,"5.01 µM [rising, partial curve, poor fit]"
13,CCc1sc(C(=O)Nc2ccsc2C(=O)OC)cc1Br,"31.6 µM [rising, single point]"
14,O=C(NCc1ccc2c(c1)OCO2)C1CC(=O)N(c2ccc(F)cc2)C1 (configuration not stated),"0.2 µM [falling, full curve]"
15,Cn1c(-c2ccccc2)cnc1SCC(=O)NCc1ccco1,"0.178 µM [falling, full curve, poor fit]"
16,Brc1ccc(-c2csc(-c3c[nH]c4ccccc34)n2)cc1,"20 µM [rising, single point]"
17,COCCn1c(Sc2nc(C)cs2)nc2c1c(=O)[nH]c(=O)n2C,"14.1 µM [falling, single point]"
18,O=C(c1ccco1)N1CCN(C(=O)C2CCN(S(=O)(=O)c3cnc[nH]3)CC2)CC1,"11.2 µM [rising, single point]"
19,COCC(=O)n1nc(-c2ccccc2)nc1NCc1ccc(F)cc1,"0.0126 µM [rising, full curve, poor fit]"
20,C=CCn1c(Sc2ccccc2)nc2c1c(=O)[nH]c(=O)n2C,"7.94 µM [falling, single point]"
21,CCOC(=O)Cc1nnc(NC(=O)c2ccccc2OC)s1,"0.01 µM [falling, full curve, poor fit]"

# Part of the list above in order of number of heavy atoms, low to high:
row,Structure (SMILES),AC50
5,CC1(C)CC(=O)C(N=Nc2ccc3ncsc3c2)=C(O)C1,"20 µM [rising, single point]"
18,O=C(c1ccco1)N1CCN(C(=O)C2CCN(S(=O)(=O)c3cnc[nH]3)CC2)CC1,"11.2 µM [rising, single point]"
16,COc1cc2ccccc2cc1C(=O)Nc1cc(-c2nc3ccccc3o2)ccc1C,"22.4 µM [falling, single point]"
